# Reference: US8093249B2, “Pyrazolo[1,5-A]pyrimidine-carbonyl-piperazine derivatives” (Convergence Pharmaceuticals Limited, priority 2008, dated 2012)
# Protein sequences, listed by entry. Tags and fused reporters are not part of them.
# UniProt Q00975, whole entry: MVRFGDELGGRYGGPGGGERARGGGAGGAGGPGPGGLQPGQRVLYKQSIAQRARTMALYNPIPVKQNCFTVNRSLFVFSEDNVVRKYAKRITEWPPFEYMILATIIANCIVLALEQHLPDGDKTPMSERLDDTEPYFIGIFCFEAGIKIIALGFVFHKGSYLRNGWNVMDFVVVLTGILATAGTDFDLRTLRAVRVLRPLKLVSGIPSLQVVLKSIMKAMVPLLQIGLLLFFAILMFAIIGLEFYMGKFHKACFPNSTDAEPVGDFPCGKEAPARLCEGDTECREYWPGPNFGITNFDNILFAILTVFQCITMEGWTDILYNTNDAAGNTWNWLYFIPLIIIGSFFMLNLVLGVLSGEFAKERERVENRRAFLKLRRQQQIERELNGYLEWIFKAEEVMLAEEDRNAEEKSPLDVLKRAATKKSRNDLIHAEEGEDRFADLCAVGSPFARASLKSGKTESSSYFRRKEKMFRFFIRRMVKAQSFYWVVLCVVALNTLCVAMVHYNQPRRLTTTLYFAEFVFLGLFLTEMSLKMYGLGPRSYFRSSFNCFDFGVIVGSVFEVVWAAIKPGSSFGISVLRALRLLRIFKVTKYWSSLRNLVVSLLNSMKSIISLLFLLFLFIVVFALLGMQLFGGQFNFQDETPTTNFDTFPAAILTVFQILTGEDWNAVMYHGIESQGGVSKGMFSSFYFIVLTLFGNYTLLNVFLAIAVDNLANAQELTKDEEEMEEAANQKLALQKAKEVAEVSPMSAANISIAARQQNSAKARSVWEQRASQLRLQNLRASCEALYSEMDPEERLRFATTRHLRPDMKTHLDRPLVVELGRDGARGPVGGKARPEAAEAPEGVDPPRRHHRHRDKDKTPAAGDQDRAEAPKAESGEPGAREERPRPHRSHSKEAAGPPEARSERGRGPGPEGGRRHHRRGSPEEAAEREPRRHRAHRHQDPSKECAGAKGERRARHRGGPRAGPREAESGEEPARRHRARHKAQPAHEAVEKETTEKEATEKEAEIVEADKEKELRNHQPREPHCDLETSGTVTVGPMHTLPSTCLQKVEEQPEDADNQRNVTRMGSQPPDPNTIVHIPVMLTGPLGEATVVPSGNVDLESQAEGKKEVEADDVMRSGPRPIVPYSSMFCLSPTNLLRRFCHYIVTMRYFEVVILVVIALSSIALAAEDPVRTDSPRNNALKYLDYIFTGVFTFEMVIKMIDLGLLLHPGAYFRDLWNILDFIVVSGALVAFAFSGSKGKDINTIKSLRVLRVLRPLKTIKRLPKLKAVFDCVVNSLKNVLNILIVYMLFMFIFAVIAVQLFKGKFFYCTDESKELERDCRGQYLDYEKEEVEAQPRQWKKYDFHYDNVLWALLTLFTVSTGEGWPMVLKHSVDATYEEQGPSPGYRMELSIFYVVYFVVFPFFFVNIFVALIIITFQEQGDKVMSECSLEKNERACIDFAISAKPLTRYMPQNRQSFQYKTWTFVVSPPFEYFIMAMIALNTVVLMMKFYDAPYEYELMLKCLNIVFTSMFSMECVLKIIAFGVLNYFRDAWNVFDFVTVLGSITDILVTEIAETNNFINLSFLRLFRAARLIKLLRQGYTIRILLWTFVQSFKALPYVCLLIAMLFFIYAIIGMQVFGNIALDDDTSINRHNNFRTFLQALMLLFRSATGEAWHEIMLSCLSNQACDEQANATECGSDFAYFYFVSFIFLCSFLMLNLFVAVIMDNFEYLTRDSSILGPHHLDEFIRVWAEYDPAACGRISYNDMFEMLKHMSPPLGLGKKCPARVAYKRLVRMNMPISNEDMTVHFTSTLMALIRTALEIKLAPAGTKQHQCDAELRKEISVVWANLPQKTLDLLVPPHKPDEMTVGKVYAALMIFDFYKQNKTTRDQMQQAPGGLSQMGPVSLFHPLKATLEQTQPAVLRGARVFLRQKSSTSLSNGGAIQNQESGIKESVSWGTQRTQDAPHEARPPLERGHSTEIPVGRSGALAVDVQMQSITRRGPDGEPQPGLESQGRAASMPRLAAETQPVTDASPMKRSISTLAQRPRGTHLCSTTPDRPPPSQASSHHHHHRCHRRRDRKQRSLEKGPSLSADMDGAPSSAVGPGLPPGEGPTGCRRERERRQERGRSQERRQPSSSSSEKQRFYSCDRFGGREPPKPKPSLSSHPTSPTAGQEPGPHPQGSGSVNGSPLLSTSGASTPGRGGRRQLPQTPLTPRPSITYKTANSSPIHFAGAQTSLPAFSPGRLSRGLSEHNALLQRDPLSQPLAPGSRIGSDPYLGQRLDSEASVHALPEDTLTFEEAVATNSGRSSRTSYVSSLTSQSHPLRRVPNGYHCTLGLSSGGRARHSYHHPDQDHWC
# Some of these results come from one statement about several compounds together.
# Biological target: T1, hCaV2.2 (Homo sapiens, UniProt Q00975)
# T1 construct: expressed in transfected cells; plasmids pCIN5-hCaV2.2, pCIH-hCaV β3, pCIP-α2δ1
# Assay: hCaV2.2 assay (IonWorks planar array electrophysiology, HEK293 stable cell line)
# Type: cell-based
# Settings: concentration producing 30% use-dependent inhibition, 10th versus 1st depolarizing pulse, 10 Hz, HEK293 cells expressing human CaV2.2 α/β3/α2δ1
# From the text: Compounds of the invention may be tested for in vitro biological activity in the hCaV2.2 assay in accordance with the following studies:
# Stable cell lines expressing the human CaV2.2 α (α1B) subunit, along with the human β3 and α2δ1 auxillary subunits were created following sequential transfection and selection of human embryonic kidney (HEK293) cells. […] Initially HEK293 cells were transfected with two plasmid vectors for expression of the hCaV2.2 α subunit (pCIN5-hCaV2.2 which carries a neomycin resistance marker) and the hCaV β3 subunit (pCIH-hCaV β3 which carries a hygromycin resistance marker). […] These clonal cell lines were assessed for Cav2.2 α/β3-mediated current expression using the IonWorks planar array electrophysiology technology (described below). […] Expression of all three subunits within this cell line was continuously maintained by the inclusion of G418 (0.4 mg ml^−1), hygromycin (0.1 mg ml^−1) and puromycin (0.62 μg ml^−1). Cells were maintained at 37° C. in a humidified environment containing 5% CO2 in air.
# Cells were grown to 30-60% confluence in T175 flasks and maintained at 30° C. for 24 hours prior to recording. […] Lifted cells were suspended in 10 ml of extracellular buffer. Cell suspension was then placed into a 15 ml tube and centrifuged for 2 minutes at 700 rpm. After centrifugation, the supernatant was removed and the cell pellet was resuspended in 4.5 ml of extracellular solution.
# Currents were recorded at room temperature (21-23° C.) using the IonWorks planar array electrophysiology technology (Molecular Devices Corp.). Stimulation protocols and data acquisition were carried out using a microcomputer (Dell Pentium 4). In order to determine planar electrode hole resistances (Rp), a 10 mV, 160 ms potential difference was applied across each hole. These measurements were performed before cell addition. After cell addition a seal test was performed prior to antibiotic (amphotericin) circulation to achieve intracellular access. Leak subtraction was conducted in all experiments by applying a 160 ms hyperpolarizing (10 mV) prepulse 200 ms before the test pulses to measure leak conductance. Test pulses stepping from the holding potential (VH) of −90 mV to +10 mV were applied for 20 ms and repeated 10 times at a frequency of 10 Hz. In all experiments, the test pulse protocol was performed in the absence (pre-read) and presence (post-read) of a compound. Pre- and post-reads were separated by a compound addition followed by a 3-3.5 min incubation.
# The intracellular solution contained the following (in mM): K-gluconate 120, KCl 20 mM, MgCl2 5, EGTA 5, HEPES 10, adjusted to pH 7.3. Amphotericin was prepared as 30 mg/ml stock solution and diluted to a final working concentration of 0.2 mg ml^−1 in intracellular buffer solution. The extracellular solution contained the following (in mM): Na-gluconate 120, NaCl 20, MgCl2 1, HEPES 10, BaCl2 5, adjusted to pH 7.4.
# Finally the compounds were diluted 1:100 in external solution resulting in a final DMSO concentration of 1%.
# Paired comparisons between pre-compound and post-compound additions were used to determine the inhibitory effect of each compound. […] In addition the use-dependent inhibitory properties of the compounds were determined by assessing the effect of compounds on the 10th versus 1st depolarizing pulse. The ratio of the 10th over 1st pulse was determined in the absence and presence of drug and the % use-dependent inhibition calculated.
# Compounds were tested in the form as described in the Examples. […] Variations in pUD30 and pIC50 values may arise between tests.
row,Compound,pUD30 value (use-dependent pUD30)
1,"Cc1cc(C#N)ccc1S(=O)(=O)N1CCN(C(=O)c2c(C)nn3cccnc23)[C@@H](C)C1 [Example 24, 3-methyl-4-({(3S)-3-methyl-4-[(2-methylpyrazolo[1,5-a]pyrimidin-3-yl)carbonyl]-1-piperazinyl}sulfonyl)benzonitrile]",≥ 4.5
2,"C[C@H]1CN(C(=O)c2cnn3cccnc23)CCN1S(=O)(=O)c1ccc(C(F)(F)F)cc1 [Example 4, 3-[((3S)-3-Methyl-4-{[4-(trifluoromethyl)phenyl]sulfonyl}-1-piperazinyl)carbonyl]pyrazolo[1,5-a]pyrimidine]",≥ 5.5
3,"C[C@H]1CN(S(=O)(=O)c2ccc(C(F)(F)F)cc2)CCN1C(=O)c1cnn2cc(Cl)cnc12 [Example 17, 6-chloro-3-[((2S)-2-methyl-4-{[4-(trifluoromethyl)phenyl]sulfonyl}-1-piperazinyl)carbonyl]pyrazolo[1,5-a] pyrimidine]",≥ 5.5
4,"C[C@@H]1CN(C(=O)c2cnn3cccnc23)CCN1S(=O)(=O)c1ccc(C(F)(F)F)cc1 [Example 3, 3-[((3R)-3-Methyl-4-{[4-(trifluoromethyl)phenyl]sulfonyl}-1-piperazinyl)carbonyl]pyrazolo[1,5-a]pyrimidine]",≥ 5.5
5,"Cc1ccc(C(F)(F)F)cc1S(=O)(=O)N1CCN(C(=O)c2cnn3cccnc23)[C@@H](C)C1 [Example 18, 3-[((2S)-2-methyl-4-{[2-methyl-5-(trifluoromethyl)phenyl]sulfonyl}-1-piperazinyl)carbonyl]pyrazolo[1,5-a] pyrimidine]",≥ 5.5
6,"C[C@H]1CN(S(=O)(=O)c2ccc(OC(F)(F)F)cc2)CCN1C(=O)c1cnn2cccnc12 [Example 11, 3-{[(2S)-2-methyl-4-({4-[(trifluoromethyl)oxy]phenyl}sulfonyl)-1-piperazinyl]carbonyl}pyrazolo[1,5-a]pyrimidine]",≥ 5.5
7,"C[C@H]1CN(S(=O)(=O)c2ccc(C(F)(F)F)cc2)CCN1C(=O)c1cnn2cc(F)cnc12 [Example 9, 6-Fluoro-3-[((2S)-2-methyl-4-{[4-(trifluoromethyl)phenyl]sulfonyl}-1-piperazinyl)carbonyl]pyrazolo[1,5-a]pyrimidine]",≥ 5.5
8,"Cc1cc(C#N)ccc1S(=O)(=O)N1CCN(C(=O)c2cnn3cc(Cl)cnc23)[C@@H](C)C1 [Example 16, 4-({(3S)-4-[(6-chloropyrazolo[1,5-a]pyrimidin-3-yl)carbonyl]-3-methyl-1-piperazinyl}sulfonyl)-3-methylbenzonitrile]",≥ 5.5
